Laboratory results taken from article PMC9004249.
Positions count from the first letter of the chain named. For at least one entry, the source does not settle the construct or the ends of the probe. At least one verdict was read from the data and is not stated in words by the source. Tags and fusion partners may be left off the protein sequences shown.

The chains behind the UniProt entries cited, without tags or fusion partners. Where a name states a change or a piece, a line headed by the entry shows the natural chain unless it says otherwise.
UniProt P0A9G4: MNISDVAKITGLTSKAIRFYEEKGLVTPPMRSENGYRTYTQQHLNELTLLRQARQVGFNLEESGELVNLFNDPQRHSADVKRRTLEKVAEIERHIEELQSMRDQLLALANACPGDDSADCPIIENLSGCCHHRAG

How the values were obtained:
Test in all cases: EMSA
Conditions in all cases: EMSA: 30 min at room temperature, 15% glycerol before loading, 5% native gel in TAE (40 mM Tris, 20 mM acetic acid, 1 mM EDTA) at 4 C, 80 V, EtBr stain; recombinant protein; residues 1-135
[1] = target: T1, CueR_A16R1 (A16C, MTSSL spin-labeled) A16C,C129A,C130A (Escherichia coli) (UniProt P0A9G4)
T1 sequence (looked up): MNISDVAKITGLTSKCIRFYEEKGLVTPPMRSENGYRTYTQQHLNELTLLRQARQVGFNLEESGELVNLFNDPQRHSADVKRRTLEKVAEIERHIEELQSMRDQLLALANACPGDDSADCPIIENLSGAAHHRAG

[2] = target: T2, CueR_G57R1 (G57C, MTSSL spin-labeled) G57C,C129A,C130A (Escherichia coli) (UniProt P0A9G4)
T2 sequence (looked up): T1 sequence (looked up) with C16A, G57C

[3] = target: T3, CueR_M101R1 (M101C, MTSSL spin-labeled) M101C,C129A,C130A (Escherichia coli) (UniProt P0A9G4)
T3 sequence (looked up): T1 sequence (looked up) with C16A, M101C

Measured: binding result

TTGACCTTCCCCTTGCTGGAAGGTTTA (double strand) [copA promoter 27 bp]
binds: all assays above
